Laboratory results from publication doi:10.1101/093054 (bioRxiv, 2016).
Results are given in words; binding and its absence hold for the method and conditions named. Some results given as binding are weak or reduced against the parent protein; the word gives no strength. Where a sequence is shown, tags or fusion partners need not be part of it.

Target: T1, SPD-5::TagRFP (C. elegans), P91349
T1 chain: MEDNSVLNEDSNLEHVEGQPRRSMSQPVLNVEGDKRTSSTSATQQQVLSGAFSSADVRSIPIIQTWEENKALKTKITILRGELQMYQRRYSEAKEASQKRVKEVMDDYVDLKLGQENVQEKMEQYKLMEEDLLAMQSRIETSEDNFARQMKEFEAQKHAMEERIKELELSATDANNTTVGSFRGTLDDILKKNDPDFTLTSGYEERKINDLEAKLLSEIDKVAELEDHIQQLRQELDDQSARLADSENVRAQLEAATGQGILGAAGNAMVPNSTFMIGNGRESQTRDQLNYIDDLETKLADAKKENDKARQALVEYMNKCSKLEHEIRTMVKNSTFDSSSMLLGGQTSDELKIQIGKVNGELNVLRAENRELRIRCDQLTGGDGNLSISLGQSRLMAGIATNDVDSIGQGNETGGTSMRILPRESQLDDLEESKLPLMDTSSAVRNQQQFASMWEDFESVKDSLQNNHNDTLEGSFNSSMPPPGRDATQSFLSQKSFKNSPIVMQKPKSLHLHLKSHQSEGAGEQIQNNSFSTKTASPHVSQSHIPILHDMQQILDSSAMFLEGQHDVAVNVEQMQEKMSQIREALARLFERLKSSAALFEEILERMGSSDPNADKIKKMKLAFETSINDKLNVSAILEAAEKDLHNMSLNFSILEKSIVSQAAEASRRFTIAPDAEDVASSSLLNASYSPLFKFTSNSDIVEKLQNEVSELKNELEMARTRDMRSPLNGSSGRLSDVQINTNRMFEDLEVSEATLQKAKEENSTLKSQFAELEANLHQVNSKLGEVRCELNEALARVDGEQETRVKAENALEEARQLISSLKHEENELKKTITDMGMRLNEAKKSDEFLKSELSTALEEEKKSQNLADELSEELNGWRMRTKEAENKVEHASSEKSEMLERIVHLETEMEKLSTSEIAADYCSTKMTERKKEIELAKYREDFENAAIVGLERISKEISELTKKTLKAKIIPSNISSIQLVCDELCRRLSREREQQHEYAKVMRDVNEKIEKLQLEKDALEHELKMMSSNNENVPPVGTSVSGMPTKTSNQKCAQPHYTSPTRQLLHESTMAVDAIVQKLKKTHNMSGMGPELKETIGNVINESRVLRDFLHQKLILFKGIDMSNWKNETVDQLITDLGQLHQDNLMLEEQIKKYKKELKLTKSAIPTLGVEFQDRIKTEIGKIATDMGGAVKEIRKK
Assay: fluorescence microscopy of droplets
Settings: remark: other sources report otherwise

B1: SPD-5::GFP, P91349 1-1198 (protein)
chain: T1 chain
binding: binds
